# PubChem BioAssay AID1508600 (Functional Genomics Laboratory (NCATS/FGL), 2020)
# Screen size: about 53,000 sequences; about 3,700 (7%) were called active.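 How the source made its calls: active means gene knockdowns whose robust z-score for IL-1 alpha signal is at least 2 or at most -2, so actives lie on both sides; inactive means the rest.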 The list shows a part of the results.
# Test: Components of the Cytosolic LPS Sensing Pathway: Gene Identification via Genome-wide siRNA Screen;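 further: robust z of the log signal after scaling to non-targeting control siRNA wells of the plate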
# Details: RAW264.7 macrophages, IL-1a HTRF, actives lie on both sides, screened at 100 nM (by protocol), cells primed 5 h with Pam3CSK4 first
# How it was run: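 Cells (RAW264.7, 1×10^4 per well) were transfected with siRNA at 100 nM and cultured 48h at 37 degrees C. Pam3CSK4 was added for 5 hours; LipidA transfection followed for 24 hour. IL-1a was then measured by HTRF.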
row,Sequence,z-score
1,GGAAAACAUACCAUGUAUGTT against Zfp322a,inactive: -0.38
2,CGACGAGGAAUAACCUCUCTT against Myh6,active: 2.05
3,GGCUUCUGUGGGAAUCACATT against Ednrb,inactive: -0.657
4,GGAGAAUGAGUGGUAUCUGTT against Msh2,inactive: -1.48
5,GGCUUACCUUAUUGUGAUCTT against Psen2,inactive: -0.795
6,GCCACAAUACUUCCAGCAATT against Tnr,inactive: -0.567
7,GGCUUACGAUGAAAAUAAATT against Lca5,inactive: -1.94
8,CCUCUAUGGUCUGCCUCAUTT against Spint2,inactive: 0.0672
9,GCUUACCUUGUUCUUAAAGTT against D2hgdh,inactive: -1.62
10,CCUACGCAGCAUGUGUGAATT against Exosc4,inactive: -0.13
11,GGGCCUGUACAUCUUCCAATT against Anpep,inactive: 0.926
12,GGUCUCAGAGCUACAUCCCTT against Plekha2,inactive: -0.206
13,CCAAAGACAUCUCACACAGTT against Tgfb1,inactive: -1.2
14,GGACGUACUCCGGAGCUUUTT against Mal2,inactive: 1.65
15,GUAUUUCCAGUAUUACUUGTT against AI467606,inactive: -0.0923
16,GGUGGAUAAAGCUUAAAUATT against V1rg10,inactive: -0.258
17,CCUGUCCUACCAAAGUCUUTT against Tmem126a,inactive: -1.81
18,GAAUGUCUGAGCAAGGAGGTT against Arpp21,inactive: 0.227
19,GGAUGUUACUUAAUGACUATT against Zfp160,inactive: -0.513
20,GCUCUGUUCUCCAAACUGCTT against Pyy,inactive: 0.119
21,GGUAUCCUCUUUUUUAACCTT against Exosc9,inactive: -0.849
22,GCCGGAUAGACCAAUUGGATT against Nlk,inactive: -0.27

row,Sequence,z-score
1,GGAAGAAAUAGAUGAGAAUTT against Tnmd,inactive: 0.245
2,GGCCGUCACUGCCAAUAGUTT against Dnah2,inactive: 0.684
3,GGGAUACCUCAUUUUUUCUTT against Olfr107,inactive: 1.75
4,GGAGAAAACCAUCUUGGUUTT against Olfr284,inactive: 0.105
5,CCCAUCUUCAGAUUGUGCATT against Gabrg3,inactive: 0.575
6,GCUGUGUGCCACUUUAUGUTT against Ebna1bp2,inactive: 0.583
7,GGAAAAGGAAAAGAAGAAGTT against Brd3,inactive: -0.00641
8,CCUUUAGAGUUUGAUCUGCTT against Cebpg,inactive: -0.0789
9,GGUUGAAUCUGUAAACAUGTT against Ercc6,inactive: 1.21
10,GGAUGUGGCUGAAUCUCUGTT against Zkscan14,inactive: -0.873
11,GGCACAGAAGAAUGAGAGATT against Schip1,inactive: 0.217
12,GGCCAUGGAGAUCAUGUUATT against Svopl,inactive: -0.554
13,CCGUCCUGCAUCGGAUUUATT against Ppp2r5a,inactive: 0.801
14,GCGCAUCCGUGUGAAAUUCTT against Timm21,inactive: -1.1
15,GGGAGCCACAUACAAAUACTT against Noc4l,inactive: 1.02
16,GGACAAUUAACGAUCCCACTT against Pdxp,active: -2.58
17,GGUAUAUAACAACCUGUAUTT against Ttc29,inactive: -1.43
18,CCCAAUUGUAGAGUCAUGGTT against Rab43,inactive: -0.261
19,GCACCUUUGAGUGCAACAUTT against Rnf185,active: -2.37
20,AAAGAUGAGAGAAGAACUCTT against Bud31,inactive: 0.253
21,GGCUGCAUCCAAAACAGAATT against Ubash3b,inactive: -0.964
22,GGACCUUUCUGAAGUCCAATT against Ahsp,inactive: -0.0978

row,Sequence,z-score
1,GGAUUCUGAACCUUACAGATT against Hoxd9,inactive: 1.61
2,GGAAGUUGUACGGACAGACTT against Nr4a1,inactive: -1.09
3,GCCAUGUUCAAAUUGACGGTT against Pi4ka,inactive: 1.57
4,GGACAUCUUAAGAUCUUUGTT against Dipk2b,inactive: -1.11
5,GGGAGUCUCUUUGACAAUGTT against Vps26c,inactive: 1.28
6,GGUUAAGACUCACGACCUGTT against 1700092C17Rik,inactive: -0.933
7,GGAAAAUUCAGGAAGUUUGTT against Magi3,inactive: 0.489
8,GACUGCUUCCUUCUGACUGTT against Olfr399,inactive: -0.575
9,GGAAUUCUUAGCCAAUGCCTT against Gas2l1,inactive: 0.396
10,GGCAGAAUUUGAGCACUUUTT against B4galnt2,active: -2
11,GGAUCCUAACUAUAUUCUCTT against Pdyn,inactive: -0.0327
12,GGCGGAGGAAAUUUCUGGATT against Creb5,inactive: -0.388
13,CGUGAAGAUCGAACAGGACTT against Wfs1,inactive: 1.12
14,GCAAGACUGAGAGAAUUGGTT against Pi16,inactive: -0.00781
15,GGAUCUUCAAGGUUAACCATT against Prmt7,inactive: 1.18
16,GCUCAAAGUUUGAACUGGCTT against Atxn2l,inactive: 0.153
17,GCUUUCAGGGAAACUUGCCTT against Ky,inactive: 0.129
18,GGAUUACGAAAAUCAUGGUTT against Polr3e,inactive: -1.77
19,GGUAAAAGAGGCAAUUACGTT against Olfr1497,inactive: 0.591
20,CGCUGCUUUUCCUAGCAGATT against Orai1,inactive: 0.194
21,CGAACGUGCCAACUUACUATT against Gpd2,inactive: -0.517
22,CCACUUUCUGUUGCACUCUTT against Slc25a23,inactive: 0.41

row,Sequence,z-score
1,GGCCUUGAAAGCCAUUGGUTT against Kmo,inactive: -0.728
2,GGUUACCAACCUUCUCAUGTT against Ptbp1,inactive: -0.778
3,GGAAUUAUCUUCAUCCCUGTT against Abhd10,active: -4.79
4,GGAAAAACUACUCAAGGAGTT against Evi5l,inactive: -0.0731
5,GUUCCCUGCCUGGCAGAAUTT against Foxd2,active: 3.8
6,GGGUGAGUUCUUAAGCUCATT against Ndufb2,inactive: -1.06
7,GGUGGAACAGUGGAAUUCGTT against Grhpr,active: 2.41
8,GGUGUUUGUGACUCUGGGUTT against Mc4r,active: 2.77
9,GGACCUGCACUUAAUGUUUTT against Gabarap,inactive: 0.614
10,GGUACUGGAAGAGGAGGUATT against Ppil3,inactive: -0.507
11,CCAGACCUGCGCUUUUUUGTT against Myod1,inactive: -0.00348
12,CCUCCAGUUACGAUGGAGATT against Wdr95,inactive: 1.14
13,CGGAUUCAUUCGGAUGUGCTT against Rln1,inactive: -0.308
14,GGUCAGCAAAGAAAUCUUCTT against Exosc5,inactive: -0.354
15,GGAAUAACAGCCUUGUAUUTT against Slc25a15,inactive: -0.145
16,GGCCAGCAAUAAAACUGUCTT against Max,inactive: -0.326
17,CCAGGUCUUAAUUACAGAGTT against Capza1,inactive: -0.0949
18,GGCCUGCUACUUUUGAUGCTT against Olfr166,inactive: 0.0524
19,GGUGAAAUGUCUUAUAACATT against Efcab1,inactive: 0.52
20,GGAAGUUCGUGGAAGGCAATT against Pck1,inactive: 0.188
21,GGAAGAUGCCUACUUCAGATT against 4632433K11Rik,active: 2.5
22,GGCAGCAGUUAAUUUACUUTT against Mmp21,inactive: -1.71

row,Sequence,z-score
1,GCGUAUGCCAAGGAACUCATT against 1110051M20Rik,inactive: 0.7
2,GGAUUCACUGUUUUAUUCUTT against Fap,inactive: 0.282
3,GCCUGGUGGAAUAAGAAUUTT against Derl2,inactive: 0.023
4,CCGAUUGUAUUUCUAUAAGTT against Klf2,inactive: 0.571
5,GGCUUUGUUGACCACUCAGTT against Ndst2,inactive: -1.33
6,CGGAUUCUAAAUGCUGUAATT against Aox3,inactive: 0.382
7,GGACUUGGAGCUGAAAUUGTT against Sae1,inactive: -0.0224
8,GGCAGCUCAGGAAAAUAAATT against Htr4,inactive: -0.862
9,GCUAAUAAAGCAUUCAGCATT against Bivm,inactive: -1.31
10,GGCAACCAGUCUCAUCAAUTT against Scgb1b27,inactive: -0.927
11,GGUGCUAAAGGACAUAGGUTT against Tmem177,active: 3.27
12,GGAUGAAGAGAAAGAGGAATT against Zfpm1,inactive: 0.436
13,GGAACUGAGUAGUCUGAAGTT against Ap4e1,inactive: 0.523
14,GGACUGAAGCUGAAUUCCUTT against 0610012G03Rik,inactive: -1.77
15,GGCUAACAUGGUUUUAUAUTT against Cldn1,inactive: -0.356
16,GCUCUACGUUGAAGAGCGATT against Mad2l2,inactive: -0.232
17,CCAAACCCAGUUGCAUUUGTT against Slitrk5,inactive: 0.499
18,GCUUAUUCGGGAUAAAGUATT against Elavl1,inactive: 0.101
19,GCUAGCGGCAGUAUUCUGUTT against Rab7,inactive: 0.45

# Shown tab-delimited: entries from further up.
row	Sequence	z-score
21	CGAACGUGCCAACUUACUATT against Gpd2	inactive: -0.517
22	CCACUUUCUGUUGCACUCUTT against Slc25a23	inactive: 0.41
1	GGCCUUGAAAGCCAUUGGUTT against Kmo	inactive: -0.728
2	GGUUACCAACCUUCUCAUGTT against Ptbp1	inactive: -0.778

# 2 entries picked at random from the list so far, as already listed:
row,Sequence,z-score
5,GGGAGUCUCUUUGACAAUGTT against Vps26c,inactive: 1.28
11,GGCACAGAAGAAUGAGAGATT against Schip1,inactive: 0.217
